From PubChem BioAssay AID901 (National Center for Advancing Translational Sciences (NCATS), 2007)
This is one part of the list. Shown are side measurements of this screen, not its main read-out; they come without a call. Compounds called inactive in the main read-out are mostly missing here. The note in brackets gives the kind of curve behind each potency; many fits are weak.

Assay: qHTS Assay for Identifying the Cell-Membrane Permeable IMPase Inhibitors
Conditions: CHO-M1 cells, IP1 accumulation, HTRF TR-FRET ratio; measured here: donor channel 620 nm AC50

Row | Compound | AC50
1 | CCNC(=O)CCc1nc(-c2ccc(C(C)(C)C)cc2)no1 | 25.1 µM [falling, single point]
2 | CCCCSC1(SCCCC)N=C(N)C2(C#N)C(c3ccccc3)NC(C)=C(C)C12C#N (stereo not drawn) | 0.0158 µM [rising, full curve, poor fit]
3 | c1ccc(OCc2nn3c(-c4ccncc4)nnc3s2)cc1 | 3.16 µM [falling, partial curve]
4 | O=C1Nc2cc(Cl)ccc2C1(N1CCNCC1)C(F)(F)F (stereo not drawn) | 2 µM [falling, partial curve]
5 | CCOc1ccc(OCC)c(NC(=O)CN2CCN(c3cccc(C)c3)CC2)c1 | 2.51 µM [falling, partial curve, poor fit]
6 | CCC(=O)Nc1ccc(C(=O)Nc2ccc(OC)cc2[N+](=O)[O-])cc1 | 0.0224 µM [falling, full curve, poor fit]
7 | CCOC(=O)N1CCC(NC(=O)C2CCN(S(=O)(=O)N3CCC(C)CC3)CC2)CC1 | 0.0501 µM [falling, full curve, poor fit]
8 | O=C(Nc1ccc(O)c(-c2nc3ccccc3o2)c1)c1sc2ccccc2c1Cl | 14.1 µM [rising, partial curve]
9 | NC(=O)C1(N2CCCCC2)CCN(CC(=O)Nc2ccccc2-c2ccccc2)CC1 | 0.112 µM [rising, full curve, poor fit]
10 | COc1ccc(NC(=O)C2C(=O)N(C)C3(C)CC2c2ccccc2O3)cc1 (stereo not drawn) | 2.51 µM [rising, full curve, poor fit]
11 | CCCS(=O)(=O)N1CCN(Cc2ccncc2)CC1 | 1.58 µM [falling, full curve, poor fit]
12 | CC(C)N1CC(O)=C(c2nc3ccccc3c(=O)[nH]2)C1=N | 10 µM [falling, partial curve, poor fit]
13 | CCOC(=O)Cn1c(=S)[nH]c2c(oc3ccc(Cl)cc32)c1=O | 3.16 µM [rising, single point]
14 | COc1ccc(NS(=O)(=O)c2cccc(-c3nnc4n3CCCCC4)c2)cc1 | 0.501 µM [falling, full curve]
15 | CCOc1ccc(C(=O)N2CCSC2=S)cc1 | 0.0794 µM [falling, full curve, poor fit]
16 | CC1=CC(C)(C)NC(=S)N1c1cccc2ccccc12 | 0.251 µM [falling, single point]
17 | COc1ccc(C(=O)N2CC3(C)CC2CC(C)(C)C3)cc1OC (stereo not drawn) | 2.51 µM [falling, partial curve]
18 | Cc1cc(C(=O)OC2CCOC2=O)c2ccccc2n1 (stereo not drawn) | 5.01 µM [rising, single point]
19 | Cc1ccccc1N1CCN(CCCOc2ccc3c(C)cc(=O)oc3c2)CC1 | 0.631 µM [falling, full curve, poor fit]
20 | Cn1ncc2c(=O)n(CC(=O)NC34CC5CC(CC(C5)C3)C4)cnc21 | 3.16 µM [falling, single point]
21 | CC1C(C)C(O)(c2ccccc2)CCN1C (stereo not drawn) | 5.01 µM [falling, single point]
22 | COC(=O)c1ccccc1NC(=O)c1cc2ncc(Br)cn2n1 | 0.0891 µM [falling, full curve]

Two entries picked at random from the list so far, as already listed:
Row | Compound | AC50
4 | O=C1Nc2cc(Cl)ccc2C1(N1CCNCC1)C(F)(F)F (stereo not drawn) | 2 µM [falling, partial curve]
12 | CC(C)N1CC(O)=C(c2nc3ccccc3c(=O)[nH]2)C1=N | 10 µM [falling, partial curve, poor fit]

Carrying on:

Row | Compound | AC50
23 | CCN1C(=O)/C(=C2/C=CC=CN2C)OC1=S | 2 µM [falling, partial curve]
24 | CCOCC(O)CSCc1ccc(Cl)cc1 (stereo not drawn) | 0.282 µM [falling, full curve, poor fit]
25 | CCOC(=O)CNC(=O)C1c2cc(OC)c(OC)cc2C(=O)N(C)C1c1ccccc1F (stereo not drawn) | 3.98 µM [falling, full curve]
26 | CCC1Oc2ccc(C)cc2N(CC(=O)N(Cc2cccnc2)Cc2cccc(F)c2)C1=O (stereo not drawn) | 12.6 µM [falling, single point]
27 | CC(Sc1cnc2ccccc2n1)C(=O)O (stereo not drawn) | 10 µM [rising, partial curve]
28 | Cc1oc2c(c1C(=O)NCc1cc(C(=O)O)co1)CCCC2 | 0.126 µM [falling, full curve, poor fit]
29 | CCOc1ccccc1-n1nnnc1SCC(=O)Nc1cc(C)on1 | 5.01 µM [rising, single point]
30 | Cc1cc(SCNC(=O)c2ccccc2)ncn1 | 2 µM [falling, full curve]
31 | O=C(Cn1nnc(-c2ccc(N3CCOCC3)cc2)n1)OC1CCCCC1 | 0.631 µM [rising, partial curve, poor fit]
32 | O=C(NCc1cccnc1)c1ccc(COc2ccccc2Br)o1 | 5.62 µM [rising, partial curve, poor fit]
33 | c1ccc(CN(CC2=NCCN2)c2ccccc2)cc1 | 0.501 µM [falling, full curve, poor fit]
34 | Cc1[nH]ccc(=O)c1OCc1ccc(Cl)cc1 | 35.5 µM [falling, single point]
35 | CC(C)(C)OC(=O)N1CCC[C@H]1c1nnc(SCc2c(F)cccc2Cl)o1 | 0.0251 µM [rising, partial curve, poor fit]
36 | COc1ccccc1C1=NN(C(=S)Nc2ccccc2)C(c2ccco2)C1 (stereo not drawn) | 6.31 µM [falling, single point]
37 | CN1CCN(C=NC2=NN(c3cccc(C(F)(F)F)c3)CC2)CC1 | 28.2 µM [falling, partial curve]
38 | CCOC(=O)N1CCC(NC(=O)c2ccc3c(c2)N(Cc2ccc(F)cc2)CCS3)CC1 | 12.6 µM [falling, single point]
39 | COc1ccc(N2CCN(S(=O)(=O)c3ccc(OC)cc3)CC2)cc1 | 31.6 µM [falling, single point]
40 | O=C(O)COc1ccc2nsnc2c1Cl | 15.8 µM [rising, single point]
41 | N#CCc1ccc(NC(=O)Nc2cccc(Cl)c2)cc1 | 31.6 µM [falling, single point]
42 | CCN(C(=O)c1ccc(C(C)(C)C)cc1)c1nnc(Cn2nnc3ccccc32)s1 | 25.1 µM [falling, single point]
43 | C/C(Cl)=C/Cn1c(=O)c2c(nc(Br)n2Cc2ccccc2)n(C)c1=O | 1.26 µM [rising, partial curve]
